Laboratory results taken from US20240368664A1, “LIVE YEAST BIOSENSORS AND METHODS OF USE THEREOF” (priority 2021, published 2024).
Read-outs that look alike come from different tables or passages of the source. The name of at least one read-out is uncertain. Residues, ends and D or L forms follow the SMILES beside them. No end group written: not given here.

Tests used:
[1] = tested on: CaSte2 with protease CaBar1; settings: liquid culture; 1-h preincubation, 8-h incubation (FIG. 32)
[2] = tested on: AfuSte2 (first member), ScSte2 (second member)

| Molecule | effect of CaBar1 on EC50, lycopene readout [1] | EC50 shift in the second member ([2]; ScBar1 expressed in both members) | EC50 shift in the second member ([2]; ScBar1 expressed in either the first or the second member) | EC50 improvement in the second member ([2]; no expression of protease ScBar1, ODi 0.15:0.15) |
| --- | --- | --- | --- | --- |
| GARLTNFGYFEPG [CaPep2A] | but not CaPep2A | – | – | – |
| CC(C)C[C@H](NC(=O)[C@H](Cc1c[nH]cn1)NC(=O)[C@H](CS)NC(=O)[C@@H](N)Cc1c[nH]c2ccccc12)C(=O)N1CCC[C@H]1C(=O)NCC(=O)N[C@@H](CCC(N)=O)C(=O)NCC(=O)N[C@@H](CS)C(=O)O [AfuPep] (H-WCHLPGQGC-OH; N-terminus and C-terminus assumed) | – | did not significantly shift EC50 | half an order of magnitude | one order of magnitude |
